The results in this text go back to PubChem BioAssay AID288 (DTP/NCI, 2004).

Each structure is given as a SMILES string. The list does not hold the whole screen: it is rich in T/C values a quarter to a half above the control, in often repeated tests (any T/C) and in doses without a T/C. Further doses and runs are listed elsewhere. T/C is the treated group as % of the vehicle group. Schedule codes are those of the source, read here as Q, the interval in days (D) or hours (H), X, the number of doses. Some entries give survivors of the animals treated and no T/C: the source holds a T/C of zero for them, seemingly a mark for toxic or unscored doses. Some survivor counts are full or nearly so, which does not show that the dose was tolerated: survival well below the control is almost never listed, so the zero probably covers shortened survival too. Survivors were counted at the toxicity check, usually on the fifth day, unless a day is given; later deaths do not show. For survival time, this PubChem deposit counts one and a half times the control or more as active, and values a quarter to a half above the control carry no call in these data; other NCI protocols may use other cut-offs. Some doses were run more than once; their values stand side by side, smallest first.

For this experiment, the system named is BDF1 mice, M5076 sarcoma s.c., survival/tumor T/C. The experiment in a line: NCI In Vivo Anticancer Drug Screen. Data for tumor model Sarcoma M5076 (subcutaneous) in B6D2F1 (BDF1) mice. As to the method:
The antitumor activity of compounds was measured in mice bearing transplantable tumors. Survival or tumor size were measured and the results are expressed as the measurement made in the treated group (T) divided by the measurement made in the vehicle treated control group (C). The tumor model used in this assay is Sarcoma M5076 (subcutaneous) in B6D2F1 (BDF1) mice

[1] abbreviates: T/C endpoint: median survival time, dose: 100.0 mg/kg/injection, schedule: Q01DX009 (ip), vehicle: saline with Tween-80, higher T/C = longer survival.

In the case of `N[C@H](C(=O)O)[C@@H]1CC(Cl)=NO1`, the T/C by setting is: (T/C endpoint: median survival time, dose: 1.0 mg/kg/injection, schedule: Q01DX010 (ip), vehicle: saline, higher T/C = longer survival) 126 and 132 % of control; (T/C endpoint: median survival time, dose: 2.0 mg/kg/injection, schedule: Q01DX010 (ip), vehicle: saline, higher T/C = longer survival) 142 % of control; (T/C endpoint: median survival time, dose: 4.0 mg/kg/injection, schedule: Q01DX010 (ip), vehicle: saline, higher T/C = longer survival) 144 % of control; (T/C endpoint: median survival time, dose: 8.0 mg/kg/injection, schedule: Q04DX005 (ip), vehicle: saline, evaluated on day 18, higher T/C = longer survival) 138 % of control; (T/C endpoint: median survival time, dose: 8.0 mg/kg/injection, schedule: Q04DX005 (ip), vehicle: saline, evaluated on day 55, higher T/C = longer survival) 136 % of control; (T/C endpoint: median survival time, dose: 16.0 mg/kg/injection, schedule: Q04DX005 (ip), vehicle: saline, evaluated on day 18, higher T/C = longer survival) 143 % of control. Further, the T/C (T/C endpoint: median survival time, dose: 16.0 mg/kg/injection, schedule: Q04DX005 (ip), vehicle: saline, evaluated on day 55, higher T/C = longer survival) is 141 % of control. Besides, the survivor count reads like this: (T/C endpoint: median survival time, dose: 8.0 mg/kg/injection, schedule: Q01DX010 (ip), vehicle: saline, higher T/C = longer survival) 10 of 10; (T/C endpoint: median survival time, dose: 16.0 mg/kg/injection, schedule: Q01DX010 (ip), vehicle: saline, higher T/C = longer survival) 10 of 10.

As to `COC1CC2C=C(C)/C=C/C=C/C(=O)NC(c3ccccc3)C/C=C/CCC(O)CC(=O)C2=C1O` (configuration not stated), the survivor count was 10 of 10 (T/C endpoint: median survival time, dose: 8.0 mg/kg/injection, schedule: Q01DX009 (ip), vehicle: Klucel (hydroxypropylcellulose) (HPC), higher T/C = longer survival); 5 of 10 (T/C endpoint: median survival time, dose: 16.0 mg/kg/injection, schedule: Q01DX009 (ip), vehicle: Klucel (hydroxypropylcellulose) (HPC), higher T/C = longer survival); 2 of 10 on day 20 (T/C endpoint: median tumor weight (est.), dose: 8.0 mg/kg/injection, schedule: Q01DX009 (ip), vehicle: Klucel (hydroxypropylcellulose) (HPC), higher T/C = larger tumour); 0 of 10 on day 20 (T/C endpoint: median tumor weight (est.), dose: 16.0 mg/kg/injection, schedule: Q01DX009 (ip), vehicle: Klucel (hydroxypropylcellulose) (HPC), higher T/C = larger tumour).

Turning to `Nc1n[n+](-c2ccc(Cl)cc2)no1`, the survivor count reads like this: (T/C endpoint: median survival time, dose: 100.0 mg/kg/injection, schedule: Q04DX003 (ip), vehicle: water, higher T/C = longer survival) 0 of 10 on day 63; (T/C endpoint: median survival time, dose: 200.0 mg/kg/injection, schedule: Q04DX003 (ip), vehicle: water, higher T/C = longer survival) 0 of 10 on day 63.

On to `CC(=O)[C@H]1CC[C@H]2[C@@H]3C[C@H](C)C4=CC(=O)CC[C@]4(C)[C@H]3C(=O)C[C@]12C`, for which the survivor count (T/C endpoint: mean tumor weight, dose: 400.0 mg/kg/injection, schedule: Q02DX011 (ip), vehicle: Klucel (hydroxypropylcellulose) (HPC), higher T/C = larger tumour) is reported as 4 of 10 on day 22.

On to `CC1(C)OCC(CO)(Nc2nc(N3CC3)nc(N3CC3)n2)CO1`, for which the survivor count runs as follows: (T/C endpoint: median survival time, dose: 6.25 mg/kg/injection, schedule: Q02DX011 (ip), vehicle: saline, higher T/C = longer survival) 0 of 10 on day 16; (T/C endpoint: median survival time, dose: 12.5 mg/kg/injection, schedule: Q02DX011 (ip), vehicle: saline, higher T/C = longer survival) 0 of 10 on day 16; (T/C endpoint: median survival time, dose: 25.0 mg/kg/injection, schedule: Q02DX011 (ip), vehicle: saline, higher T/C = longer survival) 0 of 10 on day 16.

`CN(C)S(=O)(=O)c1ccc(CCCCc2ccc(N3C(N)=NC(N)=NC3(C)C)cc2Cl)c(Cl)c1`: the survivor count is on record as 0 of 10 (T/C endpoint: median survival time, dose: 62.0 mg/kg/injection, schedule: Q01DX009 (ip), vehicle: saline with Tween-80, higher T/C = longer survival); 0 of 10 under setting [1]; 0 of 10 (T/C endpoint: median survival time, dose: 160.0 mg/kg/injection, schedule: Q01DX009 (ip), vehicle: saline with Tween-80, higher T/C = longer survival).

For the molecule `CO[C@H](C(=O)[C@@H](O)[C@@H](C)O)[C@@H]1Cc2cc3cc(OC4CC(OC5CC(O)C(O)C(C)O5)C(O)C(C)O4)c(C)c(O)c3c(O)c2C(=O)[C@H]1OC1CC(OC2CC(OC3CC(C)(O)C(O)C(C)O3)C(O)C(C)O2)C(O)C(C)O1` (some centres not stated), the T/C reads like this: (T/C endpoint: mean tumor weight, dose: 2.5 micrograms/kg/injection, schedule: Q02DX011 (ip), vehicle: water, evaluated on day 22, higher T/C = larger tumour) 143 % of control; (T/C endpoint: median tumor weight (est.), dose: 0.03 mg/kg/injection, schedule: Q02DX011 (ip), vehicle: water, evaluated on day 22, higher T/C = larger tumour) 128 % of control.

With `O=C1C=CC(=O)N1c1ccc(-c2nc3ccccc3o2)cc1`, the survivor count (T/C endpoint: median survival time, dose: 50.0 mg/kg/injection, schedule: Q01DX009 (ip), vehicle: saline with Tween-80, higher T/C = longer survival) was 2 of 10 on day 9; the survivor count under setting [1] is 0 of 10 on day 9; the survivor count (T/C endpoint: median survival time, dose: 200.0 mg/kg/injection, schedule: Q01DX009 (ip), vehicle: saline with Tween-80, higher T/C = longer survival) is 0 of 10 on day 9; the survivor count (T/C endpoint: median tumor weight (est.), dose: 50.0 mg/kg/injection, schedule: Q01DX009 (ip), vehicle: saline with Tween-80, higher T/C = larger tumour) was 2 of 10 on day 20; the survivor count (T/C endpoint: median tumor weight (est.), dose: 100.0 mg/kg/injection, schedule: Q01DX009 (ip), vehicle: saline with Tween-80, higher T/C = larger tumour) is 0 of 10 on day 20; the survivor count (T/C endpoint: median tumor weight (est.), dose: 200.0 mg/kg/injection, schedule: Q01DX009 (ip), vehicle: saline with Tween-80, higher T/C = larger tumour) was 0 of 10 on day 20.

Consider `COC(=O)C[C@](O)(CCCC(C)(C)O)C(=O)O[C@@H]1C(OC)=C[C@]23CCCN2CCc2cc4c(cc2[C@H]13)OCO4`, for which the T/C reads like this: (T/C endpoint: mean tumor weight, dose: 1.0 mg/kg/injection, schedule: Q02DX011 (ip), vehicle: saline, evaluated on day 22, higher T/C = larger tumour) 130 % of control; (T/C endpoint: median tumor weight (est.), dose: 1.0 mg/kg/injection, schedule: Q02DX011 (ip), vehicle: saline, evaluated on day 22, higher T/C = larger tumour) 129 % of control.
